Screen size: about 220,000 compounds; about 770 (0.35%) were called active. The shares of active, inactive and inconclusive entries below differ from those in the screen. Cut-off read from the data, not from the text of the source: active = binding response below about 49% or above about 150%; inconclusive = no clear call, values can overlap the other calls; inactive = in between.
target: Guanine nucleotide-binding protein G(o) subunit alpha (Homo sapiens) (UniProt P09471); assay: RGS7-Galphao binding modulators, primary screen, biochemical, multiplexed bead flow cytometry (AID 1439); conditions: at 10 µM, actives lie on both sides;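 note: fluorescent Galphao held in activated GDP-AlF4 state binding bead-coupled RGS7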

Amino acid sequences for entries named in this document (tags omitted).
UniProt P09471, whole entry, looked up: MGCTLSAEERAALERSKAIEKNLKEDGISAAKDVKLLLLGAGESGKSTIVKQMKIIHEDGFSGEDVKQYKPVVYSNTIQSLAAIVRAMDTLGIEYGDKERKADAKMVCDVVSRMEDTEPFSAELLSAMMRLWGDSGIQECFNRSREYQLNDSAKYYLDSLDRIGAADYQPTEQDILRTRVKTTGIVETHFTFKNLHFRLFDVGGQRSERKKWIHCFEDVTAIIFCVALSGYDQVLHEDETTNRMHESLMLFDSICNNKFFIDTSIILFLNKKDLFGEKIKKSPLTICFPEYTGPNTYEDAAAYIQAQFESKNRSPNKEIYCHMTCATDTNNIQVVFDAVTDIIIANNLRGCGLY

| Compound | binding response (% of control) |
| --- | --- |
| COC(=O)c1sccc1-c1ccc(/C=N/OC(=O)c2cccs2)o1 | inconclusive: 134% |
| O=[N+]([O-])c1ccccc1OCCCn1cnc2ccccc21 | inconclusive: 81.2% |
| Cc1[nH]c2ccccc2c1C(c1ccncc1)N1CCN(c2ccccn2)CC1 (stereo not drawn) | inconclusive: 110% |
| COc1ccc(C2CC(C)=C(C#N)S(=O)(=O)C2C#N)cc1 (stereo not drawn) | inconclusive: 98.7% |
| CC(C)N=c1c([N+](=O)[O-])nn(C)n1O | inactive: 102% |
| COC(=O)c1ccc(CN2C(=O)C3CCCCC3C2=O)o1 (stereo not drawn) | inactive: 107% |
| CCOC(=O)NC(=O)c1cn(Nc2ccccc2C(F)(F)F)c(=O)[nH]c1=O | inconclusive: 82.9% |
| CC(=O)CSc1cc(C)nc2c(-c3ccccc3)c(C)nn12 | inconclusive: 97.6% |
| Cc1nc2c(S(=O)(=O)c3ccccc3)cnn2c(C)c1C | inconclusive: 72% |
| COC(=O)CC(NC(=O)Nc1ccc(C)cc1)c1cccc([N+](=O)[O-])c1 (stereo not drawn) | active: 3.97% |
| CN(C)c1ccc(/C=C/c2ccc3c4ccccc4ccc3[n+]2-c2ccccc2)cc1 | inconclusive: 81.1% |
| CCCCOc1ccc(C(=O)NCCC(=O)NCCCC(=O)OCC)cc1 | inconclusive: 72.8% |
| CC(C)c1ccc(/C=N/NC(=O)c2cccc(S(=O)(=O)N3CCOCC3)c2)cc1 | inconclusive: 90.8% |
| CCC(=O)N1CC2(CC(c3cccc(NC(=O)COc4ccc(Cl)cc4)c3)=NO2)C[C@@H]1C(N)=O (stereo partly drawn) | inconclusive: 97.2% |
| O=C(O)/C=C/S(=O)(=O)c1ccc2ccccc2c1 | inconclusive: 46.3% |
| CCOC(=O)c1cc(COc2cc(Cl)cc(Cl)c2)on1 | inconclusive: 181% |
| Cc1cc(S(=O)(=O)Cc2noc(-c3c(C)noc3C)n2)c(C)cc1Cl | inconclusive: 118% |
| COc1cc2c(cc1OC)C(C)=NC1(CCCCC1)C2 | inconclusive: 114% |
| CSc1ccc(C2CC(=O)Nc3c2c(=O)n(C)c(=O)n3C)cc1 (stereo not drawn) | inconclusive: 58.8% |
| O=C(COc1ncnc2ccccc12)c1ccc(Cl)cc1 | inconclusive: 104% |
| Cc1ncc(/C=C2\C(=O)Nc3ccccc32)[nH]1 | inconclusive: 55.1% |
| CC(C(=O)NC(C)(C)C)N1C(=O)c2cccc3cccc(c23)C1=O (stereo not drawn) | inactive: 96.5% |
| O=C(C1CCN(S(=O)(=O)c2ccccc2[N+](=O)[O-])CC1)N1CCOCC1 | inconclusive: 77.8% |
| Cc1ccccc1-n1nnnc1SCC(=O)c1c(N)n(C)c(=O)n(C)c1=O | inconclusive: 82.5% |

| Compound | binding response (% of control) |
| --- | --- |
| c1ccc(OCc2nc(-c3ccncc3)no2)cc1 | inactive: 101% |
| Cc1nn2c(NCc3ccccn3)c3c(nc2c1-c1ccccc1)CCC3 | inconclusive: 101% |
| N#CCC(=O)N1CC2(CC(c3cccc(NC(=O)COc4ccc(Cl)cc4)c3)=NO2)C[C@@H]1C(N)=O (stereo partly drawn) | inconclusive: 114% |
| CCC(=O)Oc1ccc2c(C)cc(=O)oc2c1C(=O)CC | inconclusive: -75% |
| CCCN(C(=O)CCl)C1=CCCCC1 | inactive: 89% |
| O=C(COC(=O)c1ccc(Cl)c(S(=O)(=O)NCc2ccccc2)c1)NCC1CCCO1 (stereo not drawn) | inconclusive: 116% |
| CN(C)/C=C(\C(=O)c1ccccc1)c1nnnn1-c1ccccc1 | inconclusive: 102% |
| Cc1ccc(C(=O)C(=O)c2ccc(C)c(N)c2)cc1N | inconclusive: 268% |
| Fc1ccccc1NC(=S)N1CCN(Cc2ccc3c(c2)OCO3)CC1 | inconclusive: 90.3% |
| CC(Nc1ccccc1N1CCCCC1)C(=O)N1CCc2ccccc21 (stereo not drawn) | inactive: 93.1% |
| COc1cc(C(=O)O)ccc1Cl | inconclusive: 118% |
| O=[N+]([O-])c1cccnc1Sc1n[nH]c(-c2ccc(Cl)cc2)n1 | inconclusive: 103% |
| Clc1ccccc1-c1nnc(-c2ccc3c(c2)OCO3)o1 | inactive: 111% |
| Cc1ccc(N=Nc2ccc(O)c3ncccc23)cc1 | inactive: 65% |
| COC(=O)c1ccccc1COn1c(=O)c(C)[n+]([O-])c2ccccc21 | inactive: 99.9% |
| CCC(CC)c1nn2c(N)c(/C=C3\C=Nc4ccccc43)c(=O)nc2s1 | inconclusive: 312% |
| CCCCNC(=O)CN(c1cccc(F)c1)S(C)(=O)=O | inactive: 95.4% |
| CCCCCCCN=C(C)c1ccccc1O | inconclusive: 70.1% |
| OCC(O)CN1CCCC1 (stereo not drawn) | inconclusive: 72.8% |
| CN1C2CCC1CC(NC(=O)c1ccc(Cl)cc1)C2 (stereo not drawn) | inconclusive: 95.5% |
| CN1/C(=C\C=C2/C(=O)Oc3ccccc3C2=O)C(C)(C)c2ccccc21 | inactive: 142% |
| CC1C(=O)NC(=O)C1c1ccccc1 (stereo not drawn) | inconclusive: 37.9% |
| O=C(Nc1cccc([N+](=O)[O-])c1)C12CC3CC(C1)CC(n1cnc([N+](=O)[O-])n1)(C3)C2 | inactive: 102% |
| Cc1cc(C)c(NC(=O)CS)c(Cl)c1 | inconclusive: 95.8% |

Entries listed so far containing nitrogen in an aromatic ring (22):

| Compound | binding response (% of control) |
| --- | --- |
| O=[N+]([O-])c1ccccc1OCCCn1cnc2ccccc21 | inconclusive: 81.2% |
| Cc1[nH]c2ccccc2c1C(c1ccncc1)N1CCN(c2ccccn2)CC1 (stereo not drawn) | inconclusive: 110% |
| CC(C)N=c1c([N+](=O)[O-])nn(C)n1O | inactive: 102% |
| CCOC(=O)NC(=O)c1cn(Nc2ccccc2C(F)(F)F)c(=O)[nH]c1=O | inconclusive: 82.9% |
| CC(=O)CSc1cc(C)nc2c(-c3ccccc3)c(C)nn12 | inconclusive: 97.6% |
| Cc1nc2c(S(=O)(=O)c3ccccc3)cnn2c(C)c1C | inconclusive: 72% |
| CN(C)c1ccc(/C=C/c2ccc3c4ccccc4ccc3[n+]2-c2ccccc2)cc1 | inconclusive: 81.1% |
| CCOC(=O)c1cc(COc2cc(Cl)cc(Cl)c2)on1 | inconclusive: 181% |
| Cc1cc(S(=O)(=O)Cc2noc(-c3c(C)noc3C)n2)c(C)cc1Cl | inconclusive: 118% |
| CSc1ccc(C2CC(=O)Nc3c2c(=O)n(C)c(=O)n3C)cc1 (stereo not drawn) | inconclusive: 58.8% |
| O=C(COc1ncnc2ccccc12)c1ccc(Cl)cc1 | inconclusive: 104% |
| Cc1ncc(/C=C2\C(=O)Nc3ccccc32)[nH]1 | inconclusive: 55.1% |
| Cc1ccccc1-n1nnnc1SCC(=O)c1c(N)n(C)c(=O)n(C)c1=O | inconclusive: 82.5% |
| c1ccc(OCc2nc(-c3ccncc3)no2)cc1 | inactive: 101% |
| Cc1nn2c(NCc3ccccn3)c3c(nc2c1-c1ccccc1)CCC3 | inconclusive: 101% |
| CN(C)/C=C(\C(=O)c1ccccc1)c1nnnn1-c1ccccc1 | inconclusive: 102% |
| O=[N+]([O-])c1cccnc1Sc1n[nH]c(-c2ccc(Cl)cc2)n1 | inconclusive: 103% |
| Clc1ccccc1-c1nnc(-c2ccc3c(c2)OCO3)o1 | inactive: 111% |
| Cc1ccc(N=Nc2ccc(O)c3ncccc23)cc1 | inactive: 65% |
| COC(=O)c1ccccc1COn1c(=O)c(C)[n+]([O-])c2ccccc21 | inactive: 99.9% |
| CCC(CC)c1nn2c(N)c(/C=C3\C=Nc4ccccc43)c(=O)nc2s1 | inconclusive: 312% |
| O=C(Nc1cccc([N+](=O)[O-])c1)C12CC3CC(C1)CC(n1cnc([N+](=O)[O-])n1)(C3)C2 | inactive: 102% |

More records:

| Compound | binding response (% of control) |
| --- | --- |
| COc1cc(C(Nc2ccc(S(=O)(=O)NCC3CCCO3)cc2)C(=O)NC(C)(C)C)cc(OC)c1OC (stereo not drawn) | inconclusive: 86.5% |
| CCCCc1c(O)cc(C)[nH]c1=O | inconclusive: 117% |
| Clc1ccc2nc(-c3ccccc3)nc(C(Cl)Cl)c2c1 | inconclusive: 81.9% |
| CCCn1cc(SCC(N)=O)c2ccccc21 | inconclusive: 140% |
| NS(=O)(=O)c1ccc(NC(=O)COC(=O)CCc2ccc(S(=O)(=O)N3CCOCC3)cc2)cc1 | inconclusive: 178% |
| O=C(O)/C=C/C(=O)c1ccc(O)cc1 | inconclusive: 742% |
| COc1ccc(C(C)N2CC34C=CC(O3)C(C(=O)OCC(C)C)C4C2=O)cc1 (stereo not drawn) | inactive: 101% |
| CCOC(=O)/C(=N\Nc1cc(Cl)ccc1Cl)N1CCOCC1 | inactive: 93.3% |
| O=C(c1ccc(F)cc1)N1CCN(c2ccc(N3CCOCC3)nn2)CC1 | inconclusive: 110% |
| CC(C)=CCN1CCN(Cc2cccn2-c2ccccn2)CC1CCO (stereo not drawn) | inconclusive: 107% |
| CCOC(=O)C(=O)N(CC)C1CCS(=O)(=O)C1 (stereo not drawn) | inconclusive: 144% |
| O=C(NCc1cccnc1)C(=O)Nc1ccc([N+](=O)[O-])cc1 | inconclusive: 117% |
| COc1ccc(CN(C(C)=O)c2ccccc2C(=O)O)cc1 | inconclusive: 462% |
| COc1cc(NC(=O)c2ccc(OC)c([N+](=O)[O-])c2)ccc1NC(=O)c1ccco1 | inconclusive: 99.9% |
| COc1cc(C(=O)NC(=S)Nc2nccs2)cc(OC)c1OC | inconclusive: 113% |
| O=C(NC1CC1)C1=C[C@H](c2ccc(Br)cc2)C[C@H](OCc2ccc(CO)cc2)O1 | inconclusive: 78.9% |
| CCOC(=O)/C(C#N)=C/c1cccc(C)c1 | inconclusive: 78.3% |
| Cn1c(C(=O)O)cc2c(=O)n3ccccc3nc21 | inconclusive: 105% |
| COc1ccc(C2/C=C\CN(C(=O)OCc3ccccc3)CC(=O)N2Cc2ccc(F)cc2)cc1 (stereo not drawn) | inconclusive: 112% |
| Cc1cc2oc(C(=O)N(Cc3ccccc3)c3ccccn3)cc(=O)c2cc1Cl | inconclusive: 116% |
| O=S1(=O)NC[C@]23C[C@H](c4ccc(F)cc4)[C@@H](C[C@@H]21)O3 | inconclusive: 75.5% |
| N#CCCn1c(O)c(N=NC(=O)CNC(=O)c2cccs2)c2ccccc21 | inconclusive: -41.1% |
| CCC(C)NC(=O)c1ccc2c(Cl)c3c(nc2c1)CCC3 (stereo not drawn) | inconclusive: 46% |
| COc1cc(OC)cc(-c2nc(-c3ccccc3OC)no2)c1 | active: 10.1% |

Grouped by structure, those above with a thiophene ring, fused or not.

| Compound | binding response (% of control) |
| --- | --- |
| COC(=O)c1sccc1-c1ccc(/C=N/OC(=O)c2cccs2)o1 | inconclusive: 134% |
| N#CCCn1c(O)c(N=NC(=O)CNC(=O)c2cccs2)c2ccccc21 | inconclusive: -41.1% |

(next part)

| Compound | binding response (% of control) |
| --- | --- |
| COc1ccc(/C=C/C(=O)OCC(=O)NCCC2=CCCCC2)cc1 | inconclusive: 121% |
| Clc1ccc(C(c2ccccc2)N2CCN(c3ccccn3)CC2)cc1 (stereo not drawn) | inconclusive: 101% |
| O=C(COC(=O)c1ccc(F)cc1)NCCc1ccc(F)cc1 | inconclusive: 96.6% |
| COc1ccc(-c2cc(=O)oc(-c3cccc(C)c3)n2)cc1 | inconclusive: -29.9% |
| CC1(C)CC(=O)C=C(Nc2ccc(F)cc2F)C1 | inactive: 106% |
| Cc1cc(C)c2cc(C(=O)Nc3ccc4c(c3)OCO4)[nH]c2c1 | inconclusive: 75.4% |
| CCOC(=O)c1[nH]c2ccc(Br)cc2c1NC(=O)CCN1CCOCC1 | inconclusive: 75.6% |
| CCOC(=O)CN1CCC(c2ccccc2)CC1 | inconclusive: 126% |
| NC(=O)Nn1c(CCC(=O)O)ccc1-c1ccc(Cl)cc1 | inconclusive: 78.4% |
| Cc1cc(C)c(C(=O)CSc2nnc(C)c(=O)[nH]2)cc1C | inactive: 96.2% |
| O=C(COC(=O)c1ccc2c(c1)C(=O)N(c1cccc3ncccc13)C2=O)c1ccc(Cl)cc1 | inactive: 103% |
| COC(=O)c1cc(-c2ccc(Cl)cc2)n(-c2ccc(S(N)(=O)=O)cc2)n1 | inconclusive: 95.1% |
| CN(c1ccccc1)P(=O)(N(C)c1ccccc1)N(C)c1ccccc1 | inactive: 101% |
| C=CCNC(=S)N(CC)c1cccc2ccccc12 | inactive: 95.7% |
| O=C(O)CC(NNC(=O)c1ccccc1)C(=O)Nc1cccc([N+](=O)[O-])c1 (stereo not drawn) | inconclusive: 112% |
| Cc1ccc2oc(/N=C(\N)NC(=O)C3CC3)nc2c1 | inconclusive: 109% |
| O=C(/C=C/c1ccccc1Cl)c1ccc(O)cc1 | inconclusive: 252% |
| COc1ccc(C(CC(=O)Nc2ccccc2OC)n2cccc2)cc1 (stereo not drawn) | inactive: 88% |
| Nc1ccc(NC(=O)NC2CCCCC2)cc1[N+](=O)[O-] | inactive: 98.9% |
| C[C@H](NC(=O)c1nc[nH]c1C(=O)N[C@H](C)c1ccccc1)C(=O)OC(C)(C)C | active: 16.8% |
| CCCNC(=O)c1ccc2c(=O)c(O)c(-c3ccc(Cl)c([N+](=O)[O-])c3)[nH]c2c1 | inconclusive: 37% |
